The supplement of paper PMC12889115
This is one part of the list. Values are raw readings; no control value is given beside them.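 First-pass screen: polymyxin B was added at a level that permeabilizes the Salmonella outer membrane while sparing the inner membrane. DMSO wells, with and without polymyxin B, defined maximum growth. Because plates differed from one another, each plate's data were ranked separately and the compounds with the lowest OD600 were carried forward as hits.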

Test system: Salmonella enterica serovar Typhimurium SL1344
Experiment: bacterial growth OD600 after 18 h with compound and polymyxin B; higher = more bacterial growth (less inhibition)
Details: 50 µM, Mueller-Hinton broth

## COCCN1CCCC2(CCN(C(=O)c3ccc(Cl)c(F)c3)C2)C1=O (centres undefined)
Polymyxin B 1 µg/mL
  bacterial growth OD600: 0.917

## CSCC(=O)N1CCc2[nH]nc(-c3cccc(F)c3)c2C1
Polymyxin B 0.75 µg/mL
  bacterial growth OD600: 0.626

## CCCN1CCCN(c2ccc(-c3nc(Cc4ccccc4)no3)cn2)CC1
Polymyxin B 0.75 µg/mL
  bacterial growth OD600: 0.657

## O=C(CN1Cc2ccccc2OC(c2ccccc2F)C1)NCCCN1CCOCC1 (centres undefined)
Polymyxin B 0.75 µg/mL
  bacterial growth OD600: 0.777

## COc1cc(=O)n2c(c1C(=O)NC(C)c1ccco1)CCN(Cc1nc3ccccc3n1C)CC2 (centres undefined)
Polymyxin B 0.75 µg/mL
  bacterial growth OD600: 0.838

## C=CCCC(=O)NC1CCCN(C2CCN(C)CC2)C1 (centres undefined)
Polymyxin B 1 µg/mL
  bacterial growth OD600: 1.1

## COc1ccccc1CN1CC(C(=O)NCc2cc(F)ccc2C)CCC1=O (centres undefined)
Polymyxin B 1 µg/mL
  bacterial growth OD600: 0.741

## CCC(NC(=O)c1ccccc1OC1CCN(S(C)(=O)=O)CC1)c1ccc(F)cc1 (centres undefined)
Polymyxin B 1 µg/mL
  bacterial growth OD600: 0.841

## O=C([C@@H]1C[C@@H]2C=C[C@H]1C2)N1CCC(C2(c3ccccn3)NC(=O)N(CCc3cccs3)C2=O)CC1 (some centres undefined)
Polymyxin B 0.75 µg/mL
  bacterial growth OD600: 0.906
